# At least one peptide structure holds a part that was inferred or is arguable (an end, a ring closure or a residue).
# Key:
# HIV = experiment: Early clinical data in HIV-infected patients; format: in vivo; settings: 20 mg/day i.v.
# HIV-1 Hx10clone = experiment: Infection assay: inhibition of cell infection (cell-free p24 by ELISA); format: cell-based; settings: C8166 cells, supernatant ELISA, no unit or concentration given
# Experimental: C8166 cells were washed once in RPMI medium and then infected with HIV-1 Hx10clone by incubation at 37° C. for 2 hours in the presence of test substances (SPC3, SPC RL, empty liposomes of 110 nm and 250 nm average size, and dialysed and non-dialysed liposomes of those sizes containing SPC3) and in the absence of any test substance (control). After incubation, the virus was removed and the cells were incubated with fresh medium at 37° C. in the presence of the test substances or in the absence of any test substance (control). Infections and cell cultures were in 96-well culture plates. The production of HIV was monitored by measuring the concentration of cell-free p24 in the supernatant by ELISA, as described by Gluschankof et al., 1997, using the AMPAK amplification kit (DAKO. Trappes, France). The results are shown in Table 2 below, and the day 4 results are also shown graphically in the accompanying drawing.
smiles,measurement,setting,value
"C[C@H](NC(=O)[C@H](CCCNC(=N)N)NC(=O)CNC(=O)[C@@H]1CCCN1C(=O)CN)C(=O)N[C@@H](Cc1ccccc1)C(=O)NCCCC[C@H](NC(=O)[C@H](Cc1ccccc1)NC(=O)[C@H](C)NC(=O)[C@H](CCCNC(=N)N)NC(=O)CNC(=O)[C@@H]1CCCN1C(=O)CN)C(=O)NCCCC[C@H](NC(=O)[C@H](CCCCNC(=O)[C@H](Cc1ccccc1)NC(=O)[C@H](C)NC(=O)[C@H](CCCNC(=N)N)NC(=O)CNC(=O)[C@@H]1CCCN1C(=O)CN)NC(=O)[C@H](Cc1ccccc1)NC(=O)[C@H](C)NC(=O)[C@H](CCCNC(=N)N)NC(=O)CNC(=O)[C@@H]1CCCN1C(=O)CN)C(=O)NCCCC[C@H](NC(=O)[C@H](CCCCNC(=O)[C@H](CCCCNC(=O)[C@H](Cc1ccccc1)NC(=O)[C@H](C)NC(=O)[C@H](CCCNC(=N)N)NC(=O)CNC(=O)[C@@H]1CCCN1C(=O)CN)NC(=O)[C@H](Cc1ccccc1)NC(=O)[C@H](C)NC(=O)[C@H](CCCNC(=N)N)NC(=O)CNC(=O)[C@@H]1CCCN1C(=O)CN)NC(=O)[C@H](CCCCNC(=O)[C@H](Cc1ccccc1)NC(=O)[C@H](C)NC(=O)[C@H](CCCNC(=N)N)NC(=O)CNC(=O)[C@@H]1CCCN1C(=O)CN)NC(=O)[C@H](Cc1ccccc1)NC(=O)[C@H](C)NC(=O)[C@H](CCCNC(=N)N)NC(=O)CNC(=O)[C@@H]1CCCN1C(=O)CN)C(=O)NCCC(=O)O [SPC3, (GPGRAF)8-(K)4-(K)2-K-βA-OH]",activity in HIV-infected patients,HIV,"a certain activity in HIV-infected patients, but usually insufficient activity"
same,p24 production,HIV-1 Hx10clone; Day 3 post-infection,0.400
same,p24 production,HIV-1 Hx10clone; Day 4 post-infection,0.415

# Source: patent publication US6610304B1, “Liposomes containing multiple branch peptide constructions for use against human immunodeficiency virus” (priority 1997, dated 2003)
